This note sets out measurements from paper PMC4076271.

Amino acid sequences for entries named in this document (tags omitted).
UniProt P26651: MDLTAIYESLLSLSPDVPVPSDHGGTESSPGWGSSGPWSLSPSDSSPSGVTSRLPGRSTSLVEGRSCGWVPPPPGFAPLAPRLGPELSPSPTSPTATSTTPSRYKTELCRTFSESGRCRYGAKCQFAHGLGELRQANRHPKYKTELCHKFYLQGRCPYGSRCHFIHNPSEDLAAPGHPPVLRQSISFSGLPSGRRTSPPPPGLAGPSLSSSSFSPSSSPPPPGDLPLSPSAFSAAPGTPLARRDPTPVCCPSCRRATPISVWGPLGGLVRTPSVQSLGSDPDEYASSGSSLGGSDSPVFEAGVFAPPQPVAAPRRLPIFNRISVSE
UniProt P27708: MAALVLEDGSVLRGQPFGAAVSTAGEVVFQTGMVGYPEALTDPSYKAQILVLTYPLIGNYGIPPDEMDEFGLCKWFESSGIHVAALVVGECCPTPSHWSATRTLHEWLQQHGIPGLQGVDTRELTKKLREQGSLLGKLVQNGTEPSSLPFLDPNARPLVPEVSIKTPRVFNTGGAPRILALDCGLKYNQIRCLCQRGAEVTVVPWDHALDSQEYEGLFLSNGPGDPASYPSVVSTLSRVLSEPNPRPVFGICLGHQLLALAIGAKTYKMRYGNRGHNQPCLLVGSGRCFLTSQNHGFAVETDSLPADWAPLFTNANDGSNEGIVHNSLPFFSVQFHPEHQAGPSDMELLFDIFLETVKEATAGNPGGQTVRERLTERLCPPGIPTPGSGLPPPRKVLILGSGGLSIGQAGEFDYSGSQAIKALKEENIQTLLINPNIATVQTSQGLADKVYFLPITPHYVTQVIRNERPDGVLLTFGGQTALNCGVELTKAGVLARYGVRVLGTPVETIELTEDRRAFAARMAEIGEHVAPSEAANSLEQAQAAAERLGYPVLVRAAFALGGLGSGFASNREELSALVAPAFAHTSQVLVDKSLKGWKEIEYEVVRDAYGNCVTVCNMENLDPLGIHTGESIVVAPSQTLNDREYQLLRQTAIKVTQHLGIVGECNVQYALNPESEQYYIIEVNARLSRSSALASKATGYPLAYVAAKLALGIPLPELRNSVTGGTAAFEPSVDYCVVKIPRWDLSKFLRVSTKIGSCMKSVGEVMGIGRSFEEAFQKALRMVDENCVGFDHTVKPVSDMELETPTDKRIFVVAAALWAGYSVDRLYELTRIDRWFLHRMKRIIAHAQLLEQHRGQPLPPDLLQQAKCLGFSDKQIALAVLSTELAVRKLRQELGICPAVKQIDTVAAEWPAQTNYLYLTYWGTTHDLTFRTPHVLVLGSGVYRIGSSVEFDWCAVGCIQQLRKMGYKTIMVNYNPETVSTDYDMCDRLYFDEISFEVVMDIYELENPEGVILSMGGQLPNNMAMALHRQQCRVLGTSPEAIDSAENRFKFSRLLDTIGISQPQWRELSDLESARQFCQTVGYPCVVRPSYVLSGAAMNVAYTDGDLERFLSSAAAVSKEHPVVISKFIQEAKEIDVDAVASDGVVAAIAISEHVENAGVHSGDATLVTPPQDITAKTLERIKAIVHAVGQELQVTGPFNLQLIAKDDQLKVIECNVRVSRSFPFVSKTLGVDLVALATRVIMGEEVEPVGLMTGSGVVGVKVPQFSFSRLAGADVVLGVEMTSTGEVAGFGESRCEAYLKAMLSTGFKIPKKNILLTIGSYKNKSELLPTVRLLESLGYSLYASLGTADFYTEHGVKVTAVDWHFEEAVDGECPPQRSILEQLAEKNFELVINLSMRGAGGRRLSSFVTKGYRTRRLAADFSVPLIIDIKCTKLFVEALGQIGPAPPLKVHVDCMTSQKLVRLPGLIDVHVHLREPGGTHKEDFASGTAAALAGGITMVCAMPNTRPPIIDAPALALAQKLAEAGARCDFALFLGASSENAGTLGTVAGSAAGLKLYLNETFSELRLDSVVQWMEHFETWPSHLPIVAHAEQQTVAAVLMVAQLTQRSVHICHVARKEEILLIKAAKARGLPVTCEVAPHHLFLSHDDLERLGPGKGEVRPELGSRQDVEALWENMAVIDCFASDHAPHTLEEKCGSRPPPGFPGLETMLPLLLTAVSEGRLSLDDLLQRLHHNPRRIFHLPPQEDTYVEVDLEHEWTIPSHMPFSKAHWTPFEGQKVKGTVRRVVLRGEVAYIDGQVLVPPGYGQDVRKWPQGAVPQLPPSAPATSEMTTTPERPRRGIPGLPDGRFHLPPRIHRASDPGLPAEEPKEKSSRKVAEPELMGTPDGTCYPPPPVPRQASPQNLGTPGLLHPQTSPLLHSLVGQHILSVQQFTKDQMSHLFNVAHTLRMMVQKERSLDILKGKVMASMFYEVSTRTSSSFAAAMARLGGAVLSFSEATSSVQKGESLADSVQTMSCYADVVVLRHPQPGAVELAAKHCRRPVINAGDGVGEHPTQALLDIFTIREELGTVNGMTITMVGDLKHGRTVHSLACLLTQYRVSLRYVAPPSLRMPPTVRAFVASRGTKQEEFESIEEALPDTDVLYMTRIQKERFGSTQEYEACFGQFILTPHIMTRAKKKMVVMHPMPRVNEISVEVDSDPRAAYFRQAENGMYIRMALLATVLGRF
UniProt P62258: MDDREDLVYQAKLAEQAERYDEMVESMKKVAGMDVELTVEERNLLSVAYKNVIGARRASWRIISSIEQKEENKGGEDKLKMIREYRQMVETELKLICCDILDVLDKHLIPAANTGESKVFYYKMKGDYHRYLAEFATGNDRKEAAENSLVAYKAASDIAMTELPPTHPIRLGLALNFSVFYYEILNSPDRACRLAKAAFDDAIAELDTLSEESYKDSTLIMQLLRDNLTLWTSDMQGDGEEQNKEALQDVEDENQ

Assay [1] concerns the target Flag-tagged TTP (tristetraprolin) (UniProt P26651). The experiment in a line: affinity purification with mass spectrometry; anti-Flag IP from RNase-treated extracts of stable T-REx HEK 293 lines expressing Flag-TTP or Flag-BRF1; SDS-PAGE, silver staining, mass spectrometry of individual gel bands.
The target in assay [2] is T1, Flag-tagged BRF1 (UniProt Q07352).
T1 sequence: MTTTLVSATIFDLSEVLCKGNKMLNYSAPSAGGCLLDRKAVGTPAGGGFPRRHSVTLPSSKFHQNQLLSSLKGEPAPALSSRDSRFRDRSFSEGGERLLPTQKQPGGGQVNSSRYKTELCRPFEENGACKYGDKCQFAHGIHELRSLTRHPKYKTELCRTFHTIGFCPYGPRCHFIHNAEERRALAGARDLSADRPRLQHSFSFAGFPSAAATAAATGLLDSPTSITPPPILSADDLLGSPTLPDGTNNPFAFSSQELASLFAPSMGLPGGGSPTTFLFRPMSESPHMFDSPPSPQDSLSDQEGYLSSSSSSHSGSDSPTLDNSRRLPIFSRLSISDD
The assay is described as above.

Results are given in words; binding and its absence hold for the method and conditions named. In cells and extracts the contact can be indirect. These calls come from enrichment with a bait or labelling near it, and not all partners need be listed. For some of these results: Sequences can lack the tags named with a protein.

Regarding “CAD (carbamoyl-phosphate synthetase 2, aspartate transcarbamylase, and dihydroorotase), endogenous in HEK 293 cells (from UniProt P27708 1-2225)”, the binding entry in assay [1] and in assay [2] was “binds” in each case.

For the substance “14-3-3ε, endogenous in HEK 293 cells (from UniProt P62258 1-255)”, the binding result in assay [1] and in assay [2] was “binds” in each case.
